Measurements reported in PubChem BioAssay AID652243 (Drosophila RNAi Screening Center, 2013).
Test: 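Knock-downs that decrease or increase androgen receptor reporter signal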 (primary screen). Cell system: Drosophila S2R+ cells. Knock-down reagent: long dsRNA against Drosophila genes. Duration: 72 h (48 h, then 24 h hormone). Challenge: synthetic androgen R1881 at 10 nM for 24 h. Measured: 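Per-well raw luminescence of the androgen-driven firefly reporter and of the Renilla control, two replicates each, without normalisation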. Direction: firefly reporter light: higher = more light from androgen-responsive reporter; Renilla control light: higher = more constitutive control signal (cell number, transfection). Rule for the call: 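Across duplicate plates, a knock-down whose log firefly/Renilla ratio shifted a set fold down or up from the GFP/LacZ control mean was a hit; the downward cut appears as both 1.5 and 3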. Calls: active = hit: reporter lowered or raised; inactive = no hit.
The screen tested about 24,000 reagents; shown is an unselected part of those with a known target gene and a result. Over the whole deposit, 246 (1%) were called active. 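Plates not normalised; calls are printed but the firefly/Renilla ratio behind them is not deposited; fold cut for lowering reported inconsistently.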 Raw values are not corrected between plates. Unmarked entries are inactive. Reagents against one gene are numbered here. Names joined by + are all predicted targets of the reagent. The record does not give: the amount of reagent.

no.	gene	reagent no.	firefly reporter light, replicate 1	firefly reporter light, replicate 2	Renilla control light, replicate 1	Renilla control light, replicate 2
1	CG32801	1	4.35e5	3.24e5	4.39e6	3.39e6
2	CG32801	2	8.85e5	9.26e5	1.29e6	1.58e6
3	CG14313	1	62042	51490	1.05e6	1.12e6
4	ninaA (neither inactivation nor afterpotential A)	1	7.38e5	7.67e5	2.50e6	2.16e6
5	CG18190	1	1.34e5	1.92e5	2.23e6	1.69e6
6	CG18190	2	5.32e5	4.81e5	1.75e6	1.68e6
7	Ctr1A (Copper transporter 1A)	1	3.66e5	4.08e5	2.20e6	2.01e6
8	Sb (Stubble)	1	2.15e5	1.53e5	2.23e6	1.79e6
9	Sb (Stubble)	2	4.38e5	5.77e5	1.57e6	1.37e6
10	Reps (RALBP1 associated Eps domain containing)	1	1.16e5	1.30e5	1.16e6	1.20e6
11	CG14126 (retired record)	1	1.72e5	1.24e5	1.58e6	1.51e6
12	CG14126 (retired record)	2	5.42e5	6.85e5	1.26e6	1.22e6
13	Trmt61 (tRNA methyltransferase 61)	1	1.27e5	1.28e5	1.70e6	2.14e6
14	CG10344	1	2.62e5	2.48e5	1.97e6	1.64e6
15	CG10344	2	1.02e6	8.58e5	8.49e5	7.59e5
16	caz (cabeza)	1	7.76e5	7.20e5	1.68e6	1.09e6
17	caz (cabeza)	2	3.85e5	3.67e5	1.83e6	1.47e6
18	Ca-alpha1D (Ca[2+]-channel protein alpha[[1]] subunit D)	1	9.58e5	9.82e5	1.81e6	1.93e6
19	Dus2 (Dihydrouridine synthase 2)	1	1.26e5	1.08e5	5.25e5	5.74e5
20	zyd (zydeco)	1	2.95e5	91187	6.40e5	4.80e5
21	CG14931	1	2.98e5	2.34e5	1.73e6	1.12e6
22	Mpcp1	1	1.11e5	1.28e5	1.49e6	1.48e6
23	Mlf (Myelodysplasia/myeloid leukemia factor)	1	38128	40149	7.46e5	7.46e5
24	Mlf (Myelodysplasia/myeloid leukemia factor)	2	3.13e5	4.76e5	3.76e5	3.98e5
25	Gclc (Glutamate-cysteine ligase catalytic subunit)	1	3.94e5	4.62e5	3.71e6	4.24e6
26	Muc11A (Mucin 11A)	1	3.50e5	4.05e5	2.19e6	2.09e6
27	Muc11A (Mucin 11A)	2	5.98e5	5.78e5	1.11e6	1.11e6
28	JMJD5 (Jumonji domain containing 5)	1	83415	1.45e5	1.21e6	1.95e6
29	JMJD5 (Jumonji domain containing 5)	2	5.04e5	5.97e5	1.15e6	8.70e5

Laid out differently: results already given
gene | reagent no. | firefly reporter light, replicate 1 | firefly reporter light, replicate 2 | Renilla control light, replicate 1 | Renilla control light, replicate 2
CG14931 | 1 | 2.98e5 | 2.34e5 | 1.73e6 | 1.12e6
Mpcp1 | 1 | 1.11e5 | 1.28e5 | 1.49e6 | 1.48e6
Mlf (Myelodysplasia/myeloid leukemia factor) | 1 | 38128 | 40149 | 7.46e5 | 7.46e5
Mlf (Myelodysplasia/myeloid leukemia factor) | 2 | 3.13e5 | 4.76e5 | 3.76e5 | 3.98e5

The results go on:
no.	gene	reagent no.	firefly reporter light, replicate 1	firefly reporter light, replicate 2	Renilla control light, replicate 1	Renilla control light, replicate 2
30	PolD1 (DNA polymerase delta subunit 1)	1	1.22e5 (active)	1.31e5	2.07e6	2.21e6
31	PolD1 (DNA polymerase delta subunit 1)	2	4.66e5	4.67e5	1.09e6	9.54e5
32	CG33459	1	1.12e5	1.86e5	2.92e5	3.23e5
33	lace	1	6.53e5	4.72e5	1.23e6	1.47e6
34	Dbx	1	91444	98738	1.07e6	1.38e6
35	Dbx	2	58751	58586	1.07e6	8.49e5
36	Dbx	3	8.47e5	8.89e5	1.84e6	1.94e6
37	Dbx	4	1.87e5	3.30e5	5.85e5	5.85e5
38	Dbx	5	7.15e5	6.73e5	1.90e6	2.17e6
39	CG5674	1	9.84e5	1.01e6	1.41e6	1.12e6
40	CG5674	2	4.44e5	4.98e5	1.08e6	1.22e6
41	CG15225	1	6.68e5	5.76e5	1.01e6	9.65e5
42	CG15225	2	5.32e5	4.93e5	1.30e6	1.30e6
43	CG33914	1	9.14e5	6.78e5	2.18e6	1.75e6
44	pasi1 (pasiflora 1)	1	6.65e5	6.70e5	2.07e6	1.46e6
45	pasi1 (pasiflora 1)	2	8.72e5	6.60e5	3.35e6	2.48e6
46	pasi1 (pasiflora 1)	3	3.53e5	2.42e5	5.94e5	6.08e5
47	CG14439	1	3.26e5	3.01e5	2.11e6	2.12e6
48	CG12278	1	1.56e5	2.52e5	1.39e6	1.95e6
49	CG43373 + CG42514	1	2.54e5	3.21e5	6.06e5	6.61e5
50	CG13919	1	94426	61176	8.70e5	7.80e5
51	MetRS-m (Methionyl-tRNA synthetase, mitochondrial)	1	1.15e5	94983	6.32e5	8.07e5
52	MetRS-m (Methionyl-tRNA synthetase, mitochondrial)	2	82449	77806	1.27e6	1.59e6
53	CG6497	1	3.48e5	2.90e5	3.41e6	2.52e6
54	CG6497	2	9.18e5	5.84e5	3.20e6	2.42e6
55	CG6497	3	2.17e5	3.65e5	2.85e5	3.98e5
56	CG15139 (retired record)	1	1.14e5	1.10e5	9.52e5	1.47e6
57	CG10660	1	2.64e5	1.34e5	1.75e6	9.59e5
58	CG10660	2	7.11e5	7.15e5	1.91e6	1.36e6
